Test results reported in PubChem BioAssay AID2551 (National Center for Advancing Translational Sciences (NCATS), 2010).
The whole screen tested about 310,000 compounds, of which about 17,000 (5.5%) were called active. The shares of active, inactive and inconclusive entries below differ from those in the screen. Calls follow the shape of the dose curve; as a rule, active = well fitted inhibition curve with a large enough effect; inconclusive = small, poorly fitted or top-dose-only effect, or effect the other way; inactive = no such curve, though single readings can be large or run the other way. Potencies of inconclusive entries are doubtful fits and often do not repeat.

Chains of the proteins cited; added tags and fusions are not shown. Lines headed by an entry give the natural chain unless they say otherwise; changes in a name come on top.
UniProt P51450: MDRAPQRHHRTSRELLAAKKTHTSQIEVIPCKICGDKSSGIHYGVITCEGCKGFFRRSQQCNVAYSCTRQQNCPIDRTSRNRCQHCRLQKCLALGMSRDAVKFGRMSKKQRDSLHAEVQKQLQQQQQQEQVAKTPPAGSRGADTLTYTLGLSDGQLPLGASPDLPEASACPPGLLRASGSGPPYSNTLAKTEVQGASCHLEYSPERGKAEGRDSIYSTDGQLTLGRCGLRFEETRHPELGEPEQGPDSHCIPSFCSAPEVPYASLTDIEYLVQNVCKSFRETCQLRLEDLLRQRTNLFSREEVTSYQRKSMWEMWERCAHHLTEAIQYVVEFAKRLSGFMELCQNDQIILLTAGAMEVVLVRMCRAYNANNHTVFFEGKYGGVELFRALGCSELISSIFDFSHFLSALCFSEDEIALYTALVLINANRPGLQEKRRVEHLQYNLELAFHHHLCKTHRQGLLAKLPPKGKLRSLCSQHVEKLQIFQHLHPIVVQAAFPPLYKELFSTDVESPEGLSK

target: Nuclear receptor ROR-gamma (Mus musculus) (UniProt P51450); experiment: qHTS for inhibitors of ROR gamma transcriptional activity; conditions: Drosophila S2 Gal4-RORgamma UAS-luciferase reporter, 20 h; series mostly up to 53.6 µM; also: nearly all actives have a fitted effect of over 60% in size
Outline: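 Drosophila S2 cells stably expressing Gal4-DBD/mouse RORγ fusion under metallothionein promoter plus UAS-luciferase; compound 1 h, then 700 uM CuSO4 induction for 20 h at ambient temperature; inhibition read as reduced luminescence.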
Potency is read from the fitted curve at half-maximal effect.

Row | Compound | Potency
1 | S=C(c1cn(Cc2ccc(Br)cc2)c2ccccc12)N1CCOCC1 | active: 14.1 µM
2 | CCCCC1(Cc2ccc([N+](=O)[O-])cc2)C(=O)N(c2ccccc2)N(c2ccccc2)C1=O | inconclusive: 31.6 µM [inhibitor, single point]
3 | CCc1ccc(S(=O)(=O)Nc2cccc(C3OCCCO3)c2)cc1 | inconclusive: 17.8 µM [activator, single point]
4 | C/C(=N/NS(=O)(=O)c1cc(C)ccc1C)c1c[nH]c2ccccc12 | inconclusive: 35.5 µM [activator, single point]
5 | CCc1ccc(Nc2cc(C(=O)NCCCN3CCOCC3)c3ccccc3n2)cc1 | inactive
6 | N/C(=N\OC(=O)c1ccccc1Br)c1ccc([N+](=O)[O-])cc1 | inconclusive: 35.5 µM [inhibitor, single point]
7 | CCOC(=O)C1(CCCc2ccccc2)CCN(C(=O)Cc2nonc2C)CC1 | inconclusive: 5.01 µM [activator, partial curve]
8 | CC(=O)c1ccc(N2CCN(C(=O)/C=C/c3ccc4ccccc4n3)CC2)cc1 | inactive
9 | CCN=C1NN=C(c2ccc(C)cc2)CS1 | active: 11.2 µM
10 | FC(F)Oc1ccc(NC(=S)N2CCN(Cc3ccccc3)CC2)cc1 | inconclusive: 35.5 µM [inhibitor, single point]
11 | CC(C)CNC(=O)c1cccc(NC(=O)C2CCCO2)c1 (stereo not drawn) | inconclusive: 6.31 µM [inhibitor, single point]
12 | CCCCCC1CCC(C(=O)N2CCOCC2)CC1 (stereo not drawn) | inactive
13 | COc1ccc(-c2nc(SCC(=O)NCc3ccco3)c(-c3ccccc3)[nH]2)cc1OC | inactive
14 | COCCCN=Cc1c(C)[nH]n(-c2ccc(Br)cc2Br)c1=O | inconclusive: 0.562 µM [activator, full curve]
15 | Cc1nn(-c2cccc(Cl)c2)c(Cl)c1/C=N/NC(=O)c1cccs1 | inconclusive: 3.16 µM [inhibitor, single point]
16 | Cc1ccccc1C(=O)c1cccn1CC(=O)N1CCCCCC1 | inconclusive: 5.01 µM [activator, single point]
17 | CCCc1ccc(C(=O)NNc2cccc(C)c2)cc1 | inactive
18 | COc1cccc(/C=C/C(=O)OCC(=O)c2cc(C)n(CC3CCCO3)c2C)c1OC (stereo not drawn) | inconclusive: 20 µM [activator, single point]
19 | CCn1c(SCC(=O)N2CCc3ccccc32)nc2c(c1=O)SC(C)C2 (stereo not drawn) | inactive
20 | CC(=O)c1cccc(NC(=O)c2cc(C(C)C)on2)c1 | inconclusive: 35.5 µM [inhibitor, single point]
21 | OC(c1cc(-c2ccc(C(F)(F)F)cc2)nc(C(F)(F)F)c1)C1CCCCN1 (stereo not drawn) | inconclusive: 35.5 µM [inhibitor, single point]
22 | Cc1ccc(-c2nn(-c3ccccc3)cc2CN(C)C(=O)CCC(=O)O)cc1C | inconclusive: 11.2 µM [activator, partial curve, poor fit]
23 | Cc1cccc(C)c1N1CCN(C(=O)c2ccc3c(c2)OCO3)CC1 | inactive
24 | CC(C)(C)Nc1nc(SCc2ccccc2)nc(N2CCOCC2)n1 | inconclusive: 4.47 µM [inhibitor, full curve, poor fit]
25 | CC(C)(C)c1cnnn1-c1ccc(C=O)cc1 | inactive

Row | Compound | Potency
26 | O=C(CCCn1c(=S)[nH]c2ccccc2c1=O)NC1CCCC1 | inconclusive: 22.4 µM [inhibitor, single point]
27 | CCOc1cccc(/C=N/NC(=S)Nc2cc(S(=O)(=O)N3CCOCC3)ccc2N2CCOCC2)c1O | inconclusive: 11.2 µM [inhibitor, single point]
28 | COc1ccc(C(=O)Nc2ccc(N3CCCC3)cc2)cc1 | inconclusive: 11.2 µM [activator, partial curve]
29 | O=C(O)/C(=N/NC(=O)c1ccc(Cl)cc1)c1ccccc1 | inconclusive: 17.8 µM [inhibitor, single point]
30 | N#Cc1c(C(F)(F)F)cc(-c2ccc(Cl)cc2)[nH]c1=O | inconclusive: 14.1 µM [activator, partial curve]
31 | COc1ccc(-n2c(COc3ccccc3)n[nH]c2=S)cc1 | active: 7.08 µM
32 | N#C/C(=C\c1ccc(OCCN2CCOCC2)cc1)C(=O)Nc1ccccc1F | inconclusive: 35.5 µM [activator, single point]
33 | N#Cc1c(SCC(N)=O)nc(-c2ccccc2)c2c1CCCC2 | inconclusive: 11.2 µM [activator, partial curve, poor fit]
34 | O=C(CSCc1ccccc1Br)N/N=C/c1ccc2c(c1)OCO2 | inconclusive: 11.2 µM [activator, partial curve]
35 | O=C(Cc1ccccc1)NCC(=O)N/N=C/c1ccc(Cl)cc1 | inactive
36 | Cc1cccc(OCCCn2c(=O)sc3ccccc32)c1 | active: 8.91 µM
37 | CCOC(=O)C1CCCN(S(=O)(=O)c2cc(C(=O)OC)n(C)c2)C1 (stereo not drawn) | inactive
38 | CCOC(=O)CN(C(=O)CSc1nnc(C)n1-c1ccccc1)c1ccccc1 | inconclusive: 6.31 µM [inhibitor, single point]
39 | Cc1nc2ccc(NC(=O)c3ccc(Cl)c(S(=O)(=O)N(C)c4ccccc4)c3)cc2s1 | inconclusive: 8.91 µM [activator, single point]
40 | O=C(CSc1nnc(-c2ccco2)o1)c1ccccc1 | inactive
41 | Cc1ccc(NC(=O)C(C)c2ccc(-c3ccccc3)c(F)c2)cc1 (stereo not drawn) | inconclusive: 11.2 µM [inhibitor, partial curve]
42 | O=C(Cc1cccc2ccccc12)N/N=C/c1ccc2cccc(O)c2n1 | active: 12.6 µM
43 | COC(=O)CN1C(=O)N/C(=C/c2ccc(C)o2)C1=O | inconclusive: 20 µM [inhibitor, single point]
44 | CC1(C)CC(=O)C(N=Nc2cc(C(F)(F)F)ccc2Cl)=C(O)C1 | inconclusive: 35.5 µM [inhibitor, single point]
45 | Fc1ccc(-c2nc3c(Cl)cc(C(F)(F)F)cn3c2Cl)cc1 | inconclusive: 35.5 µM [activator, single point]
46 | CCCC(=O)NC(=S)Nc1ccc(CN2CCOCC2)cc1 | inconclusive: 22.4 µM [inhibitor, single point]
47 | O=C(NCc1ccc2c(c1)OCO2)c1ccccc1 | inconclusive: 4.47 µM [activator, single point]
48 | O=C1CCS/C(=N\N=C\c2ccc(Cl)cc2Cl)N1 | inconclusive: 20 µM [inhibitor, single point]
49 | COc1ccc(S(=O)(=O)Nc2cc(SCC(=O)O)c(O)c3ccccc23)cc1 | inconclusive: 12.6 µM [inhibitor, single point]
50 | COc1ccc(CNC(=O)C2CCC(CNc3nc(=S)[nH]c4ccccc34)CC2)cc1 (stereo not drawn) | inconclusive: 28.2 µM [inhibitor, single point]

Four structures already listed, ordered by SMILES length, smallest number first.
Row | Compound | Potency
40 | O=C(CSc1nnc(-c2ccco2)o1)c1ccccc1 | inactive
28 | COc1ccc(C(=O)Nc2ccc(N3CCCC3)cc2)cc1 | inconclusive: 11.2 µM [activator, partial curve]
42 | O=C(Cc1cccc2ccccc12)N/N=C/c1ccc2cccc(O)c2n1 | active: 12.6 µM
50 | COc1ccc(CNC(=O)C2CCC(CNc3nc(=S)[nH]c4ccccc34)CC2)cc1 (stereo not drawn) | inconclusive: 28.2 µM [inhibitor, single point]

(next part)

Row | Compound | Potency
51 | O=C(NCc1ccc2c(c1)OCO2)c1cccc([N+](=O)[O-])c1 | inactive
52 | COc1cc2c(cc1OC)CN(c1nc(CN3CCCC3)nc3sc(C)c(C)c13)CC2 | inconclusive: 35.5 µM [inhibitor, single point]
53 | COc1ccc(Cl)cc1NC(=S)N1CCCCCC1 | inconclusive: 2.82 µM [inhibitor, partial curve]
54 | O=C(N/N=C/c1cc([N+](=O)[O-])ccc1O)C(O)(c1ccccc1)c1ccccc1 | active: 0.891 µM
55 | COC(=O)C1=C(C)NC(=S)NC1c1sccc1C (stereo not drawn) | active: 15.8 µM
56 | COc1cc(/C=C(\C#N)c2nc3c(s2)CCCC3)ccc1O | active: 8.91 µM
57 | Cc1c(Cl)cccc1NC(=S)N/N=C/c1ccccc1Cl | active: 1 µM
58 | COc1ccc(/C=N/OCC(=O)Nc2cc(C)on2)cc1OC | inactive
59 | Cc1ccc(OCC(=O)Nc2cccc(C)n2)c(C)c1 | inconclusive: 35.5 µM [inhibitor, single point]
60 | COc1ccc(C(=O)Nc2cc(C(C)=O)c(C)oc2=O)cc1 | active: 11.2 µM
61 | O=C(O)c1ccc(CSc2nnnn2C2CCCCC2)cc1 | inconclusive: 15.8 µM [inhibitor, partial curve, poor fit]
62 | CCOC(=O)C1CCN(Cc2cccc(Oc3ccccc3)c2)CC1 | inactive
63 | Nc1nc(-c2cccc(Br)c2)cs1 | inconclusive: 3.55 µM [activator, partial curve]
64 | CCOC(=O)N1CCN(c2nc(C(F)(F)F)nc3c(C)cc(C)cc23)CC1 | inconclusive: 35.5 µM [inhibitor, single point]
65 | CSc1ncc(CN2CCCCC2C(=O)Nc2ccc(Oc3ccccc3)nc2)cn1 (stereo not drawn) | inconclusive: 1.41 µM [inhibitor, single point]
66 | Cc1cc(N)n2nc(-c3ccccc3)cc2n1 | inconclusive: 12.6 µM [inhibitor, single point]
67 | O=C(N/N=C/c1ccc(Cl)s1)C(O)c1ccccc1 (stereo not drawn) | inconclusive: 22.4 µM [inhibitor, partial curve, poor fit]
68 | O=C(NCC(=O)N1CCCCCC1)c1ccc(OC(F)F)cc1 | inactive
69 | CCCCNC(=O)C1c2cc(OC)c(OC)cc2C(=O)N(C)C1c1ccc(OC)cc1 (stereo not drawn) | inconclusive: 0.126 µM [inhibitor, partial curve, poor fit]
70 | Cc1sc(NC(=O)c2ccco2)c(CN2CCN(c3ccccn3)CC2)c1C | inconclusive: 20 µM [activator, single point]
71 | CCN1CNC(=S)N(c2cccc(C)c2C)C1 | active: 11.2 µM
72 | Cc1cccc(NCc2nc(-c3ccccc3)no2)c1 | inconclusive: 5.01 µM [activator, full curve, poor fit]
73 | O=c1cc[nH]c2cccc(Cc3ccccc3)c12 | inconclusive: 11.2 µM [activator, partial curve]
